Results as given in publication PMC12040169 (PLOS Biology, 2025).
Some of the results follow.

system: T1, CTL2-GFP (C. trachomatis L2/434/Bu, GFP-expressing); parameters: species or system HeLa; Intracellular C. trachomatis growth in HeLa cells, bulk GFP fluorescence relative to DMSO; details: bulk GFP, single well; 28.5 h, 10 µM; inhibitor
T1 construct: L2/434/Bu, GFP-expressing

SMILES | % of control remaining
CCC1(CC)OC(N[C@@H](C)c2ccc3ccccc3c2)=NC1=O [CBK123982] | 107.213%
Cc1cc(C)cc(C(=O)N(CCc2ccccc2)C2CC3CCC(C2)N3C)c1 (stereo not drawn) [CBK262612C] | 100%
Cc1oc2ccc(O)cc2c1C(=O)NCCCN1CC(C)CC(C)C1 (stereo not drawn) [CBK282161] | 126.408%
O=C(O)/C(=N\O)c1ccc(CCc2ccccc2)s1 [CBK261213] | 100%
Cc1nnc([C@H]2CCN(Cc3ccccc3)C2)o1 [CBK289390] | 110.743%
O=C(CCCc1ccccc1)Nc1ccc(O)cc1C(=O)O [CBK131699] | 129.768%
O=C(NCc1ccc(N2CCCC2=O)cc1)c1cc(Br)ccc1O [CBK296614] | 127.666%
CC12CCC(CC1C(=O)NC1CC1)[C@]1(C2)NC(=O)c2ccccc2N1 (stereo partly drawn) [CBK284445] | 141.36%
CC1=Nc2c(cnn2-c2ccccc2)C2=NCCCN12 [CBK287928] | 145.101%
Cn1c(=O)n(CC(=O)NCc2cccc(F)c2)c2cccnc21 [CBK283911] | 156.909%
CC(=O)Nc1ccc(CCOc2nccnc2-c2ccc(C)cc2C)cc1 [CBK106985] | 82.5639%
O=C(c1ccoc1)N1CCC2(CCCN(Cc3ccc(OC(F)(F)F)cc3)C2)C1 (stereo not drawn) [CBK132801] | 111.269%
COc1ccc(C(=O)Nc2ccccc2C(=O)NCCCC(=O)O)cc1 [CBK287024] | 123.517%
COc1ccc(-c2nc(NC(=O)Cc3ccccc3OC)cnc2-c2cccc(C)c2)cn1 [CBK036839] | 113.276%
Cn1c(=O)c(-c2nc3ccccc3[nH]2)c(O)c2ccccc21 [CBK027678] | 140.555%
Cc1ccc(S(=O)(=O)NC(Cc2ccccc2)C(=O)O)cc1 (stereo not drawn) [CBK217645] | 122.498%
O=C(N/N=C/c1c(O)ccc2ccccc12)c1ccc(CO)nc1 [CBK261375] | 49.168%
Nc1ccc(-c2cc(F)cc(F)c2)c2ccccc12 [CBK084314] | 104.156%
CC(=O)NC1(c2ccc(F)cc2)CCN(CC(=O)NCC2CC2)CC1 [CBK283614] | 159.698%
NS(=O)(=O)c1cc(C(=O)O)ccc1F [CBK113180] | 117.327%
COc1ncc(-c2cnc3[nH]c(=O)n(Cc4ccc(S(C)(=O)=O)cc4)c3n2)cn1 [CBK065053] | 112.079%
CC(NC(=O)C1(Cn2ccnc2)CC1)c1ccccc1-n1cccn1 (stereo not drawn) [CBK307006] | 94.096%
CC(C)(C)c1ccc(CNC(=O)C2CCCN2S(=O)(=O)c2ccc3ccccc3c2)cc1 (stereo not drawn) [CBK265020] | 97.7786%
COc1ccc(OC)c(C(O)c2coc3ccc(O)c(CN(C)C)c23)c1 (stereo not drawn) [CBK261314] | 83.5631%
CCN1CCN(c2ccc(C(=O)OC)cc2NC(=O)c2ccccc2Cl)CC1 [CBK270267] | 144.948%
Clc1cccc(CNc2cncc(-c3cccnc3)n2)c1 [CBK065283] | 67.5366%

Retrieved by compound from the entries so far:
SMILES | % of control remaining
Cc1oc2ccc(O)cc2c1C(=O)NCCCN1CC(C)CC(C)C1 (stereo not drawn) [CBK282161] | 126.408%
CC1=Nc2c(cnn2-c2ccccc2)C2=NCCCN12 [CBK287928] | 145.101%

Following part

SMILES | % of control remaining
CN(C)CCNc1ccc(-c2n[nH]c(=O)c3ccccc23)cc1[N+](=O)[O-] [CBK266143] | 123.196%
COc1ccccc1N1CCN(CCCCNC(=O)c2ccc(Cl)cc2)CC1 [CBK074835] | 99.9387%
CC(C)(C)OC(=O)N1CCN(Cc2nc(-c3ccccc3)no2)CC1 [CBK306465] | 96.6175%
O=C(OCc1ccc(Sc2ccc([N+](=O)[O-])cc2Cl)cc1)c1cnccn1 [CBK268037] | 137.813%
O=C1NC2(CCCCC2)C(=O)N1c1cccc(Cl)c1 [CBK287969] | 133.903%
Cc1cc(C)n(-c2nc3c(c(=O)[nH]c(=O)n3C)n2CCc2ccccc2)n1 [CBK087129] | 106.708%
O=C(c1nn2c(C(F)(F)F)cc(-c3ccccc3)nc2c1Br)N1CCCCC1 [CBK051497] | 107.076%
O=C(O)CNC(=O)/C(=C/c1ccc(Br)cc1)NC(=O)c1ccc(Br)o1 [CBK262537] | 100%
Nc1ccc(Cc2ccc(N)c(O)c2)cc1O [CBK261149] | 107.161%
N#C/C(=C/c1ccc(-c2cc(C(=O)O)cc(C(=O)O)c2)o1)c1nc2ccccc2s1 [CBK266754] | 227.728%
CCOC(=O)c1cccc(-n2ncc(-c3ccc(F)cc3)n2)c1 [CBK112908] | 122.493%
COc1ccccc1-c1cc(Nc2ccc(NS(=O)(=O)c3ccc(C)cc3)cc2)ncn1 [CBK037819] | 105.415%
CC(=O)NC[C@H]1CN(c2ccc3c(c2)CCN(C(=O)Cc2ccccc2)CC3)C(=O)O1 [CBK018499] | 0%
Cc1nnc(C(C)Sc2nnc(N3CCC(C)CC3)n2Cc2ccco2)o1 (stereo not drawn) [CBK298311] | 133.633%
COc1ccc(C2(C(=O)NCCN3CCCC3)CC2)cc1 [CBK149824] | 105.096%
CCCC/C=C/c1cncc(N2CCN(C(=O)c3ccco3)CC2)n1 [CBK037918] | 158.734%
CC(=O)N1CCCC1C(=O)N1CC(C(=O)Nc2nc3c(C)cc(C)cc3s2)C1 (stereo not drawn) [CBK286039] | 126.107%
CCOC(=O)C1=C(Nc2ccc([N+](=O)[O-])cc2)S/C(=C\c2ccc(O)c(OC)c2)C1=O [CBK263873] | 128.881%
O=C(CSc1nnc(-c2ccncc2)n1-c1ccccc1)N1CCN(Cc2ccccc2)CC1 [CBK267240] | 145.678%
O=C(COc1ccc(S(=O)(=O)NC2CCCCC2)cc1)Nc1cccc2ccccc12 [CBK266023] | 99.6171%
COc1ccc(Br)cc1S(=O)(=O)NCCCN1CCOCC1 [CBK264050] | 128.116%
Cc1ccc2nc(C(=O)O)cc(C(=O)O)c2c1 [CBK261174] | 109.337%
O=C(CNC(=O)c1cccc(F)c1)N/N=C1/C(=O)N(Cc2ccc3c(c2)OCO3)c2ccccc21 [CBK263519] | 85.9618%
COc1ccc(C(=O)N2CCC3(CCCN(C(=O)Cc4ccc(Cl)c(Cl)c4)C3)C2)cc1OC (stereo not drawn) [CBK131654] | 111.237%
CCC(Sc1nnc2c3ccccc3n(C)c2n1)C(=O)Nc1sc2c(c1C#N)CCCC2 (stereo not drawn) [CBK263031] | 109.622%
Sc1nnc(COc2ccc(-c3ccccc3)cc2)n1-c1ccccc1 [CBK264964] | 100%

SMILES | % of control remaining
CCCCc1cc(=O)oc2cc(OC(C)C(=O)O)c(Cl)cc12 (stereo not drawn) [CBK265166] | 100%
CO[C@]1(c2ccc(Cl)cc2)CC[C@H](NCCCC(=O)c2ccc(F)cc2)CC1 [CBK015959C] | 106.043%
CS(=O)(=O)Nc1cc(-c2noc([C@@H]3CCCN3C3CCOCC3)n2)ccn1 [CBK288887] | 128.55%
CN(C(=O)CN1CCOC(Cn2cccn2)C1)C1(C#N)CCCCC1 (stereo not drawn) [CBK305335] | 129.87%
O=C(N/N=C/c1cccnc1)C1CCCN(S(=O)(=O)c2ccccc2)C1 (stereo not drawn) [CBK262712] | 128.52%
COc1ccc(C=CC(=O)N(C)c2ccccc2C(=O)O)cc1 [CBK296135] | 94.5269%
CCc1c(C)nc(N)nc1N1N=C1SC(C(C)=O)C(C)=O [CBK268558] | 85.6049%
CC(=O)NCCn1cc2c(n1)[C@H]1CN(C(=O)C3CCC3)C[C@H]1CC2 [CBK284584] | 103.343%
COc1ccc(OC)c(NS(=O)(=O)N(C)C)c1 [CBK005362] | 102.125%
COc1cc(/C=N/NC(=O)CCNc2n[nH]c(=O)[nH]c2=O)cc(Br)c1O [CBK263494] | 100%
O=S(=O)(/N=C/N1CCCC1)c1ccccc1 [CBK023272] | 99.2624%
O=C(NCc1ccc(Cl)cc1)c1cnc2ccc(C#CCO)cc2c1O [CBK017979] | 90.8572%
O=C(NCc1ccccc1)C(=O)NNC(=O)C12CC3CC(CC(C3)C1)C2 [CBK262951] | 131.804%
O=C(Nc1ccc2c(c1)OCO2)c1cccc(I)c1 [CBK058308] | 119.322%
CC1CN(CC(=O)NC(C)(C)c2ccccc2)CC(C)N1 (stereo not drawn) [CBK051693] | 115.719%
Cc1cnc2[nH]c(C(F)(F)F)c(CN3CCOCC3)c2c1 [CBK284766] | 166.032%
O=c1cc(O)c2ccccc2n1Cc1ccccc1F [CBK291162] | 133.904%
CC(C)(O)c1cn(C2CN(C(=O)c3sccc3-c3ccccc3)C2)nn1 [CBK305442] | 121.389%
CCCN1CCC(CNC(=O)c2cc3c(OC)cccc3n2C)CC1 [CBK283255] | 143.737%
O=C(Nc1ccc(N2CCN(C(=O)c3ccco3)CC2)cc1)c1cccnc1 [CBK270034] | 88.5309%
CC(=O)Nc1ccc(F)c(NC(=O)NCCN2CCCOC2=O)c1 [CBK307166] | 114.159%
CCOc1cc(NC(=O)N2CCC(Cc3cnn(C)c3)C2)ccc1C (stereo not drawn) [CBK305295] | 142.229%
CN(Cc1nnc(-c2ccc(C(C)(C)C)cc2)o1)C(=O)C1CCCO1 (stereo not drawn) [CBK307597] | 122.841%
Cc1nc2ccc(C(=O)NCCCc3ccccn3)cc2s1 [CBK282478] | 129.357%
CCNc1ccn([C@H]2C[C@@H](O)[C@@H](CO)O2)c(=O)n1 [CBK201311] | 117.967%
COc1cccc(/C=C\c2[nH]c(=O)[nH]c(=O)c2[N+](=O)[O-])c1OCC(=O)O [CBK266822] | 198.954%

In the list so far, these contain an aryl methoxy group:
SMILES | % of control remaining
COc1ccc(C(=O)Nc2ccccc2C(=O)NCCCC(=O)O)cc1 [CBK287024] | 123.517%
COc1ccc(-c2nc(NC(=O)Cc3ccccc3OC)cnc2-c2cccc(C)c2)cn1 [CBK036839] | 113.276%
COc1ncc(-c2cnc3[nH]c(=O)n(Cc4ccc(S(C)(=O)=O)cc4)c3n2)cn1 [CBK065053] | 112.079%
COc1ccc(OC)c(C(O)c2coc3ccc(O)c(CN(C)C)c23)c1 (stereo not drawn) [CBK261314] | 83.5631%
COc1ccccc1N1CCN(CCCCNC(=O)c2ccc(Cl)cc2)CC1 [CBK074835] | 99.9387%
COc1ccccc1-c1cc(Nc2ccc(NS(=O)(=O)c3ccc(C)cc3)cc2)ncn1 [CBK037819] | 105.415%
COc1ccc(C2(C(=O)NCCN3CCCC3)CC2)cc1 [CBK149824] | 105.096%
CCOC(=O)C1=C(Nc2ccc([N+](=O)[O-])cc2)S/C(=C\c2ccc(O)c(OC)c2)C1=O [CBK263873] | 128.881%
COc1ccc(Br)cc1S(=O)(=O)NCCCN1CCOCC1 [CBK264050] | 128.116%
COc1ccc(C(=O)N2CCC3(CCCN(C(=O)Cc4ccc(Cl)c(Cl)c4)C3)C2)cc1OC (stereo not drawn) [CBK131654] | 111.237%
COc1ccc(C=CC(=O)N(C)c2ccccc2C(=O)O)cc1 [CBK296135] | 94.5269%
COc1ccc(OC)c(NS(=O)(=O)N(C)C)c1 [CBK005362] | 102.125%
COc1cc(/C=N/NC(=O)CCNc2n[nH]c(=O)[nH]c2=O)cc(Br)c1O [CBK263494] | 100%
CCCN1CCC(CNC(=O)c2cc3c(OC)cccc3n2C)CC1 [CBK283255] | 143.737%
COc1cccc(/C=C\c2[nH]c(=O)[nH]c(=O)c2[N+](=O)[O-])c1OCC(=O)O [CBK266822] | 198.954%
